Reference: the supplement of paper PMC12009310
Where a name gives a salt, the structure may show the parent alone. ± gives the standard deviation of the averaged measurements. The list shows a part of the results. Part of the spread comes from offsets between plates or batches.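 The cells are a mouse kidney inner medullary collecting duct line, silenced either for the ciliary gene Rpgrip1l or with a non-targeting control siRNA.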

Assays:
mIMCD3 [1] = experiment: robust z score of cell number vs plate controls; higher = more cells (less cytotoxic); details: 10 µM, 48 h
mIMCD3 [2] = experiment: robust z score of cilia incidence (% cells with single cilium) vs plate controls; higher = more ciliated cells; details: 10 µM; 48 h; siRNA: siScr
mIMCD3 [3] = experiment: robust z score of cilia incidence (% cells with single cilium) vs plate controls; higher = more ciliated cells (rescue of cilia loss); details: 10 µM; 48 h; siRNA: siRpgrip1l

SMILES | robust z score of cell number (mIMCD3 [1]; siRNA: siRpgrip1l) | robust z score of cell number (mIMCD3 [1]; siRNA: siScr) | robust z score of cilia incidence (mIMCD3 [2]) | robust z score of cilia incidence (mIMCD3 [3])
CN(C)CCCn1cc(C2=C(c3c[nH]c4ccccc34)C(=O)NC2=O)c2ccccc21 | -31.2 ± 14 | -22.4 ± 5.5 | -13.5 ± 1.1 | -19.7 ± 8
O=c1[nH]nc(Sc2ncc([N+](=O)[O-])s2)n1-c1ccc2c(c1)OCCO2 | -31.3 ± 30 | -14.1 ± 14 | -16.4 ± 11 | -19.9 ± 4.1
c1nc(CC2CCNCC2)c[nH]1 [Immepip dihydrobromide] | -1.39 ± 2.1 | -1.21 ± 3.7 | -4.23 ± 5.4 | -8.8 ± 0.3
COc1cc2nc(N3CCN(C(=O)C4CCCO4)CC3)nc(N)c2cc1OC (stereo not given) [Terazosin hydrochloride] | -27.7 ± 32 | 2.97 ± 4.3 | 0.784 ± 0.84 | -148 ± 100
CC(C)NCC(O)c1ccc(NS(C)(=O)=O)cc1 (stereo not given) [Sotalol hydrochloride] | -2.79 ± 0.93 | 0.826 ± 0.24 | -3.98 ± 2.7 | -9 ± 2.2
